# According to publication PMC5390007:
# Sequences of proteins named here, by UniProt entry; tags and fusion partners are left off. A change or cut given only in a name is not applied to a line headed by its entry.
# UniProt P10637: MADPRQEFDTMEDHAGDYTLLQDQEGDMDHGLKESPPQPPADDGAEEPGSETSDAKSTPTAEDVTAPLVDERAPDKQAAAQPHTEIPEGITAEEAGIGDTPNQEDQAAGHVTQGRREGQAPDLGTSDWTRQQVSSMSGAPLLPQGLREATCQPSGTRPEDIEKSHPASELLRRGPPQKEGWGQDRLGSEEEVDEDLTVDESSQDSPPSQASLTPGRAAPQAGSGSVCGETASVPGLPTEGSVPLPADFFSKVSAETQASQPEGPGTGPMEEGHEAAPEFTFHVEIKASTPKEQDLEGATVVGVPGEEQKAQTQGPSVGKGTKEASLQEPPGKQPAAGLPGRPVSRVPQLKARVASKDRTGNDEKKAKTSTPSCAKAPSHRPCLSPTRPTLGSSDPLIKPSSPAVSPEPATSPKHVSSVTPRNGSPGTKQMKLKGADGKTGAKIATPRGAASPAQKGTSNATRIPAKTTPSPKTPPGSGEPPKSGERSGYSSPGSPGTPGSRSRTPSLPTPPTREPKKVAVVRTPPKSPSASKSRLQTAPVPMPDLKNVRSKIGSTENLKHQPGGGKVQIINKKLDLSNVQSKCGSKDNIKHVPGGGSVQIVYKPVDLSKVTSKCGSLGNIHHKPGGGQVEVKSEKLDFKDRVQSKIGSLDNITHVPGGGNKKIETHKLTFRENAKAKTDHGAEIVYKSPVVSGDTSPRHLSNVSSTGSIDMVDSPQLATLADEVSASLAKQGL
# UniProt P70398: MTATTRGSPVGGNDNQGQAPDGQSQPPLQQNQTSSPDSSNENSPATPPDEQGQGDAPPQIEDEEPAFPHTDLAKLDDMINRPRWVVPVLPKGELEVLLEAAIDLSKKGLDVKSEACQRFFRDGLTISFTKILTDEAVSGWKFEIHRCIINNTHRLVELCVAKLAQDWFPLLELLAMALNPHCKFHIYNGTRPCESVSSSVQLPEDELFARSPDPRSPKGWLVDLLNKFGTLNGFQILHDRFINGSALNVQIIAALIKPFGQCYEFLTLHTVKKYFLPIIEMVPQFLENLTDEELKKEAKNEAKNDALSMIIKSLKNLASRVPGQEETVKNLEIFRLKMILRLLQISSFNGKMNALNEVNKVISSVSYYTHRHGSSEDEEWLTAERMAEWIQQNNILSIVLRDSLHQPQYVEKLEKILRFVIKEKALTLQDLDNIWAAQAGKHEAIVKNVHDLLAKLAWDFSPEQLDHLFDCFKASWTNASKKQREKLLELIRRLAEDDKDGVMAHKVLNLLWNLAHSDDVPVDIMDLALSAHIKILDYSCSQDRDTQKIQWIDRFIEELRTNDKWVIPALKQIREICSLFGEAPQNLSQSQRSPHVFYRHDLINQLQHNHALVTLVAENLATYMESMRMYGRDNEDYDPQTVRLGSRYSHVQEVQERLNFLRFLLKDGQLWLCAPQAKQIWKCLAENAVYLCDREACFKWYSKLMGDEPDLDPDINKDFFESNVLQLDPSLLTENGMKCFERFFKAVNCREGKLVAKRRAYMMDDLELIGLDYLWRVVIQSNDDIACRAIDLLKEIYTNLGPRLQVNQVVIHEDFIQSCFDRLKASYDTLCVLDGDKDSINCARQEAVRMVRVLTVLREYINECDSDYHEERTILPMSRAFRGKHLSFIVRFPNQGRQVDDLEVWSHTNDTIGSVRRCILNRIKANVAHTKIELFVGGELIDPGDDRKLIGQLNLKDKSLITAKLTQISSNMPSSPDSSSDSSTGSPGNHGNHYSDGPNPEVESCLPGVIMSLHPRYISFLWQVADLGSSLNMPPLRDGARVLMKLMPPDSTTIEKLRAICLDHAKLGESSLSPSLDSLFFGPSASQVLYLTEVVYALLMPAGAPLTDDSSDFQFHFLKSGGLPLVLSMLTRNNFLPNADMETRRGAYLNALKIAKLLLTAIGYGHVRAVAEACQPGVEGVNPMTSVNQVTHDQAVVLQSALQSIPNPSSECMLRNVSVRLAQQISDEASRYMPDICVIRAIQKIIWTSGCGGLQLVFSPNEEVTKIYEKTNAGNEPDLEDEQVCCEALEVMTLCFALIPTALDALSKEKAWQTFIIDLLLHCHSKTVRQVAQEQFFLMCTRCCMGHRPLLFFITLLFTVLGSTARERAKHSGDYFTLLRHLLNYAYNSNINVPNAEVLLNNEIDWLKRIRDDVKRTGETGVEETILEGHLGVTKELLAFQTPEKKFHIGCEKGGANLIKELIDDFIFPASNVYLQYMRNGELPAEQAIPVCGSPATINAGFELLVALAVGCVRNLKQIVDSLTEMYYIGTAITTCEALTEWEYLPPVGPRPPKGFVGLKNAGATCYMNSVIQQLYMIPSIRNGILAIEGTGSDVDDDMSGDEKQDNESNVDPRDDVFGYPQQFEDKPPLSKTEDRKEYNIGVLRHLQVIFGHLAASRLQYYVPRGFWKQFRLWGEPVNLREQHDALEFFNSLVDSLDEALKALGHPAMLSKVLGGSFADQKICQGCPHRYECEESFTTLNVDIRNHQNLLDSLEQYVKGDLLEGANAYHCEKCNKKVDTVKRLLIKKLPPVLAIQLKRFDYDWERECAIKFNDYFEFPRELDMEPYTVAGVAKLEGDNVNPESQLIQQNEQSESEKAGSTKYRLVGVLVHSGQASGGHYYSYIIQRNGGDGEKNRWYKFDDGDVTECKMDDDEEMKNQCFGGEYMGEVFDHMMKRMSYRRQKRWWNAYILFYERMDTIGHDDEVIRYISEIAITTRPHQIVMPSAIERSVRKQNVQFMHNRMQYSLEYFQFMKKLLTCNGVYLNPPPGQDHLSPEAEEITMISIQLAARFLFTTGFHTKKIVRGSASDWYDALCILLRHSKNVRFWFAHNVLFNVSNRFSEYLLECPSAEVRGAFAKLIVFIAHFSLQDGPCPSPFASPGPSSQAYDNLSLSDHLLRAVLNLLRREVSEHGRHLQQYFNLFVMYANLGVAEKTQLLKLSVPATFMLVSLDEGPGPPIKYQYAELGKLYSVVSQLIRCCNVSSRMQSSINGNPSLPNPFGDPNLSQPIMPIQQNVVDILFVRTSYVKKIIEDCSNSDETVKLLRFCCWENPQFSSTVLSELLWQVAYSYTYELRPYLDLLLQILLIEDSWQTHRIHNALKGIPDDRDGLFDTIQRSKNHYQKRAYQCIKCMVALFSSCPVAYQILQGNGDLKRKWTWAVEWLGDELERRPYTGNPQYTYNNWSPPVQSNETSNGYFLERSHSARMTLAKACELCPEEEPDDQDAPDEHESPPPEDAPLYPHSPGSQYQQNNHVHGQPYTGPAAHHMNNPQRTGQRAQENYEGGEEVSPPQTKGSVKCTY
# UniProt P56399: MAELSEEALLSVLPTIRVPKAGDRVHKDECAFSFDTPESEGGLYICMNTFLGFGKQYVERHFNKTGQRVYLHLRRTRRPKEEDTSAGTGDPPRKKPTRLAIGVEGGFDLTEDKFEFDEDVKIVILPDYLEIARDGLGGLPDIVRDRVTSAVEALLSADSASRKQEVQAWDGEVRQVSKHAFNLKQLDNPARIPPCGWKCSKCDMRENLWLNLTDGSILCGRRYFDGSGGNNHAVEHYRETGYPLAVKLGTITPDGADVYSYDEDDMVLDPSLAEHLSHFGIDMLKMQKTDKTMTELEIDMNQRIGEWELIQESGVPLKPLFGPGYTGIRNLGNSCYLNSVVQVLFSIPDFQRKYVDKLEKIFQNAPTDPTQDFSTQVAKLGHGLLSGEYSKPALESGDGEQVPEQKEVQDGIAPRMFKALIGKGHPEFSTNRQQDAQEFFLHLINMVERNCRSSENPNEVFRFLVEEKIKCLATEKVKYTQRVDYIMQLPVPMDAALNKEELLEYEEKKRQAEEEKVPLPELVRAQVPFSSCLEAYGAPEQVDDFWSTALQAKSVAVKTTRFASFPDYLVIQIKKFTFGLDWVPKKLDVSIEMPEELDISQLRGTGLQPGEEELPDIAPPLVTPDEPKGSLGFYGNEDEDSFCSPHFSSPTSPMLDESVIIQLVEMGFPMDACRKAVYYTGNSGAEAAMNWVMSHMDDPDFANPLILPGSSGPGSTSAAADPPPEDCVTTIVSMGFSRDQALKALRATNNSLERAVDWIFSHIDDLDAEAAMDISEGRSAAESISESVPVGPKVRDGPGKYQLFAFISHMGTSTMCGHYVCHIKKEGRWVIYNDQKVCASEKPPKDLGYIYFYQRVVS
# UniProt Q61699: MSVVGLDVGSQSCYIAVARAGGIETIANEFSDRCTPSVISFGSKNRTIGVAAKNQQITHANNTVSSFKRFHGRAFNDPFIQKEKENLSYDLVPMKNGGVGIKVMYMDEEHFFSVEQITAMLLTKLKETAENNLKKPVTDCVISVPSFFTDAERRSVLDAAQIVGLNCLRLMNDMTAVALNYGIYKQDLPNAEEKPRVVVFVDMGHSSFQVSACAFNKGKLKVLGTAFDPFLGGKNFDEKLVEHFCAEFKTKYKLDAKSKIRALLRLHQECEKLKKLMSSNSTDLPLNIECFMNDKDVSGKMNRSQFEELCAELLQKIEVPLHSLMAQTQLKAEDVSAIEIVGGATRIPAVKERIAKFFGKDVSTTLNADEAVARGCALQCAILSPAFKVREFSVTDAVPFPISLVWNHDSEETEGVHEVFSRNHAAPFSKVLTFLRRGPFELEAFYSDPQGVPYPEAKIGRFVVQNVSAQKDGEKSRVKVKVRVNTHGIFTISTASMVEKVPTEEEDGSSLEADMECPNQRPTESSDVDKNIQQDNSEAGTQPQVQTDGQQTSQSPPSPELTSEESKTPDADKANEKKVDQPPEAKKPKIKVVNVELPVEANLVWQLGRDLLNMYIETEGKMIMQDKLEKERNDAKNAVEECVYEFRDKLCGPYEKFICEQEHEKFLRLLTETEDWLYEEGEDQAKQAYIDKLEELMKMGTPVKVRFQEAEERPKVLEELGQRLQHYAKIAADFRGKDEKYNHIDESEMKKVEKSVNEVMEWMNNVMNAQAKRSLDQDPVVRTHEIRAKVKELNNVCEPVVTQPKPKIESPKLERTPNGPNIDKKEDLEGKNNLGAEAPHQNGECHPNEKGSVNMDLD
# Results are given in words; binding and its absence hold for the method and conditions named. Binding seen in cells or lysates may run through a third protein. Here binding means that the protein was enriched with, or labelled near, the bait; the list need not be complete.
# Molecular target: Tau (endogenous, mouse brain) (mouse (endogenous in mouse brain)) (UniProt P10637)
# Experiment: affinity purification with mass spectrometry; differential co-immunoprecipitation of endogenous Tau from total mouse brain homogenates with three polyclonal anti-Tau antibodies and control antibodies cross-linked to Sepharose beads; iTRAQ quantitative mass spectrometry, four IP experiments
row,binding,Substance
1,binds,USP9x (from UniProt P70398 1-2559) (enzyme)
2,binds,USP5 (from UniProt P56399 1-858) (enzyme)
3,binds,Hsp110 (Hsp110) (from UniProt Q61699 1-858)
